Source: patent US20210145801A1, “THERAPY FOR PROTEIN MISFOLDING DISEASE” (WREN THERAPEUTICS LIMITED, priority 2018, published 2021)
For at least one compound, name, drawing or mass did not settle the structure.

Sequences of proteins named here, by UniProt entry; tags and fusion partners are left off. Residues count along the entry.
UniProt P05067, 671-713: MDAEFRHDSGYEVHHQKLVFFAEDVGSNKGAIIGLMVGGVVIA

target: T1, Aβ42 (Homo sapiens, UniProt P05067); assay: ThT kinetic assay of Aβ42 aggregation (unseeded); type: biochemical; settings: 2 μM Aβ42; 5× drug:protein concentration
T1 construct: made in house; host or cells: E. coli BL21 Gold (DE3)
Excerpt: The recombinant Aβ(M1-42) peptide ([…]-SNKGAIIGLMVGGVVIA [SEQ ID NO: 1]), here called Aβ42, was expressed in the E. coli BL21 Gold (DE3) strain (Stratagene, Calif., U.S.A.) and purified as described previously with slight modifications. Briefly, the purification procedure involved sonication of E. coli cells, dissolution of inclusion bodies in 8 M urea, and ion exchange in batch mode on diethylaminoethyl cellulose resin and lyophylization. The lyophilized fractions were further purified using Superdex 75 HR 26/60 column (GE Healthcare, Buckinghamshire, U.K.) and eluates were analyzed using SDS-PAGE for the presence of the desired protein product. The fractions containing the recombinant protein were combined, frozen using liquid nitrogen, and lyophilized again.
Except for Netoglitazone, which was custom synthesised by GVK BIO, all small molecules were purchased with a purity greater than 99%. Small molecules were first solubilized in 100% DMSO to a concentration of 5 mM, and then diluted in the peptide solution to reach a final DMSO concentration of maximum 1-3%. We verified that the addition of DMSO in the reaction mixture has no effect on Aβ42 aggregation.
Solutions of monomeric peptides were prepared by dissolving the lyophilized Aβ42 peptide in 6 M GuHCl. Monomeric forms were purified from potential oligomeric species and salt using a Superdex 75 10/300 GL column (GE Healthcare) at a flowrate of 0.5 mL/min, and were eluted in 20 mM sodium phosphate buffer, pH 8 supplemented with 200 μM EDTA and 0.02% NaN3. The centre of the peak was collected, and the peptide concentration was determined from the absorbance of the integrated peak area using ε280=1490 L mol^−1 cm^−1. The obtained monomer was diluted with buffer to the desired concentration and supplemented with 20 μM Thioflavin T (ThT) from a 1 mM stock. All samples were prepared in low binding Eppendorf tubes on ice using careful pipetting to avoid introduction of air bubbles. […]

SMILES | Delay of Aβ42 aggregation
CCc1ccc(CCOc2ccc(CC3SC(=O)NC3=O)cc2)nc1 (stereo not drawn) [Pioglitazone] | little to no delay of Aβ42 aggregation was observed
CN(CCOc1ccc(CC2SC(=O)NC2=O)cc1)c1ccccn1 (stereo not drawn) [Rosiglitazone] | little to no delay of Aβ42 aggregation was observed
Cc1c(C)c2c(c(C)c1O)CCC(C)(COc1ccc(CC3SC(=O)NC3=O)cc1)O2 (stereo not drawn) [Troglitazone] | observed to delay Aβ42 aggregation
